{"source": "PubChem BioAssay AID686938 (Drosophila RNAi Screening Center, 2013)", "screen": "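Looking for CRAC channel components and the factors controlling them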 (primary screen)", "cell system": "Drosophila S2R+ cells", "reagents": "long dsRNA against Drosophila genes, about 0.25 µg dsRNA per well, roughly 10,000 cells", "duration": "5 days of knock-down before the calcium assay", "treatment": "thapsigargin (SERCA pump blocker) to empty calcium stores; entry signal taken 4 min after adding it", "detection": "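Duplicate raw fluo-4 intensities per well from a plate reader, at rest and four minutes after thapsigargin emptied calcium stores; entry-to-rest ratio filled for only some wells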", "reading the numbers": "calcium entry signal: higher = stronger calcium signal after store depletion; entry to resting ratio: higher = more calcium entry relative to resting level; resting calcium signal: higher = higher resting calcium signal", "units": "calcium entry signal in fluorescence units; resting calcium signal in fluorescence units", "call rule": "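Hit if the duplicate-averaged plate z-score for entry over resting signal is under −3; wells with weak total dye signal (Fmax z < −2) or more than 5 off-targets removed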", "calls": "active = strongly reduced calcium entry; inactive = no strong reduction", "note": "The screen tested about 23,000 reagents; this is a random part of those with a known target gene and a result. In the full data, 75 (0.33%) were called active. 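Raw plate signals without normalisation; calls rest on plate z-scores that were not deposited; ratio present for only 364 wells.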 The numbers tell different reagents against one gene apart. Names joined by + are all predicted targets of the reagent. Not given: the dose of the treatment."}
{"Target gene":"CG32815 (GeneID 318224)","reagent no.":1,"calcium entry signal, replicate 1":4.65e7,"calcium entry signal, replicate 2":5.40e7,"entry to resting ratio":1.9,"resting calcium signal, replicate 1":2.39e7,"resting calcium signal, replicate 2":2.17e7,"Outcome":"inactive"}
{"Target gene":"CG32815 (GeneID 318224)","reagent no.":2,"calcium entry signal, replicate 1":4.12e7,"calcium entry signal, replicate 2":5.30e7,"entry to resting ratio":1.9,"resting calcium signal, replicate 1":2.22e7,"resting calcium signal, replicate 2":2.16e7,"Outcome":"inactive"}
{"Target gene":"yip2 (GeneID 34313)","reagent no.":1,"calcium entry signal, replicate 1":3.71e7,"calcium entry signal, replicate 2":4.72e7,"resting calcium signal, replicate 1":1.83e7,"resting calcium signal, replicate 2":2.18e7,"Outcome":"inactive"}
{"Target gene":"Ir52a (GeneID 36715)","reagent no.":1,"calcium entry signal, replicate 1":3.68e7,"calcium entry signal, replicate 2":4.16e7,"resting calcium signal, replicate 1":1.68e7,"resting calcium signal, replicate 2":1.84e7,"Outcome":"inactive"}
{"Target gene":"Kdm2 (GeneID 41090)","reagent no.":1,"calcium entry signal, replicate 1":3.32e7,"calcium entry signal, replicate 2":4.21e7,"resting calcium signal, replicate 1":1.25e7,"resting calcium signal, replicate 2":1.65e7,"Outcome":"inactive"}
{"Target gene":"CG1847 (GeneID 32144)","reagent no.":1,"calcium entry signal, replicate 1":2.45e7,"calcium entry signal, replicate 2":3.09e7,"resting calcium signal, replicate 1":1.24e7,"resting calcium signal, replicate 2":1.46e7,"Outcome":"inactive"}
{"Target gene":"NitFhit (GeneID 38029)","reagent no.":1,"calcium entry signal, replicate 1":3.84e7,"calcium entry signal, replicate 2":4.42e7,"resting calcium signal, replicate 1":1.98e7,"resting calcium signal, replicate 2":2.14e7,"Outcome":"inactive"}
{"Target gene":"Tob (GeneID 32574)","reagent no.":1,"calcium entry signal, replicate 1":3.73e7,"calcium entry signal, replicate 2":4.04e7,"resting calcium signal, replicate 1":1.70e7,"resting calcium signal, replicate 2":1.90e7,"Outcome":"inactive"}
{"Target gene":"SPARC (GeneID 43230)","reagent no.":1,"calcium entry signal, replicate 1":2.75e7,"calcium entry signal, replicate 2":4.69e7,"resting calcium signal, replicate 1":1.48e7,"resting calcium signal, replicate 2":2.06e7,"Outcome":"inactive"}
{"Target gene":"CG13506 (GeneID 37556)","reagent no.":1,"calcium entry signal, replicate 1":2.07e7,"calcium entry signal, replicate 2":2.90e7,"resting calcium signal, replicate 1":1.20e7,"resting calcium signal, replicate 2":1.32e7,"Outcome":"inactive"}
{"Target gene":"AGO3 (GeneID 3355150)","reagent no.":1,"calcium entry signal, replicate 1":3.71e7,"calcium entry signal, replicate 2":3.41e7,"resting calcium signal, replicate 1":2.08e7,"resting calcium signal, replicate 2":1.68e7,"Outcome":"inactive"}
{"Target gene":"CG42650 (GeneID 10178825)","reagent no.":1,"calcium entry signal, replicate 1":3.49e7,"calcium entry signal, replicate 2":3.83e7,"resting calcium signal, replicate 1":1.76e7,"resting calcium signal, replicate 2":1.91e7,"Outcome":"inactive"}

Part of the list above, reformatted.
| Target gene | reagent no. | calcium entry signal, replicate 1 | calcium entry signal, replicate 2 | entry to resting ratio | resting calcium signal, replicate 1 | resting calcium signal, replicate 2 | Outcome |
| --- | --- | --- | --- | --- | --- | --- | --- |
| CG32815 (GeneID 318224) | 1 | 4.65e7 | 5.40e7 | 1.9 | 2.39e7 | 2.17e7 | inactive |
| CG32815 (GeneID 318224) | 2 | 4.12e7 | 5.30e7 | 1.9 | 2.22e7 | 2.16e7 | inactive |

The results go on.
{"Target gene":"Cpr57A + Obp57d","reagent no.":1,"calcium entry signal, replicate 1":3.69e7,"calcium entry signal, replicate 2":3.50e7,"resting calcium signal, replicate 1":1.74e7,"resting calcium signal, replicate 2":1.65e7,"Outcome":"inactive"}
{"Target gene":"Cpr57A + Obp57d","reagent no.":2,"calcium entry signal, replicate 1":3.92e7,"calcium entry signal, replicate 2":3.39e7,"resting calcium signal, replicate 1":2.08e7,"resting calcium signal, replicate 2":1.54e7,"Outcome":"inactive"}
{"Target gene":"CR34254 (GeneID 5740610)","reagent no.":1,"calcium entry signal, replicate 1":4.14e7,"calcium entry signal, replicate 2":3.03e7,"resting calcium signal, replicate 1":2.09e7,"resting calcium signal, replicate 2":1.38e7,"Outcome":"inactive"}
{"Target gene":"CG15449 (GeneID 33079)","reagent no.":1,"calcium entry signal, replicate 1":4.06e7,"calcium entry signal, replicate 2":4.24e7,"resting calcium signal, replicate 1":2.04e7,"resting calcium signal, replicate 2":1.89e7,"Outcome":"inactive"}
{"Target gene":"Tim17a2 (GeneID 40632)","reagent no.":1,"calcium entry signal, replicate 1":6.09e7,"calcium entry signal, replicate 2":4.68e7,"resting calcium signal, replicate 1":2.60e7,"resting calcium signal, replicate 2":2.07e7,"Outcome":"inactive"}
{"Target gene":"SmD2 (GeneID 40781)","reagent no.":1,"calcium entry signal, replicate 1":2.31e7,"calcium entry signal, replicate 2":2.13e7,"resting calcium signal, replicate 1":1.57e7,"resting calcium signal, replicate 2":1.33e7,"Outcome":"active"}
{"Target gene":"Pi3K59F (GeneID 37733)","reagent no.":1,"calcium entry signal, replicate 1":4.98e7,"resting calcium signal, replicate 1":2.35e7,"Outcome":"inactive"}
{"Target gene":"Zw10 (GeneID 47874)","reagent no.":1,"calcium entry signal, replicate 1":5.51e7,"calcium entry signal, replicate 2":5.43e7,"resting calcium signal, replicate 1":2.61e7,"resting calcium signal, replicate 2":2.43e7,"Outcome":"inactive"}
{"Target gene":"mub (GeneID 40436)","reagent no.":1,"calcium entry signal, replicate 1":3.71e7,"calcium entry signal, replicate 2":4.85e7,"resting calcium signal, replicate 1":1.72e7,"resting calcium signal, replicate 2":3.11e7,"Outcome":"inactive"}
